In paper PMC6873584:
These are yes or no findings as the source states them, for the method shown. Binding seen in cells or lysates may run through a third protein. Some results given as binding are weak or reduced against the parent protein; the word gives no strength.

Sequences of proteins named here, by UniProt entry; tags and fusion partners are left off.
UniProt P40763: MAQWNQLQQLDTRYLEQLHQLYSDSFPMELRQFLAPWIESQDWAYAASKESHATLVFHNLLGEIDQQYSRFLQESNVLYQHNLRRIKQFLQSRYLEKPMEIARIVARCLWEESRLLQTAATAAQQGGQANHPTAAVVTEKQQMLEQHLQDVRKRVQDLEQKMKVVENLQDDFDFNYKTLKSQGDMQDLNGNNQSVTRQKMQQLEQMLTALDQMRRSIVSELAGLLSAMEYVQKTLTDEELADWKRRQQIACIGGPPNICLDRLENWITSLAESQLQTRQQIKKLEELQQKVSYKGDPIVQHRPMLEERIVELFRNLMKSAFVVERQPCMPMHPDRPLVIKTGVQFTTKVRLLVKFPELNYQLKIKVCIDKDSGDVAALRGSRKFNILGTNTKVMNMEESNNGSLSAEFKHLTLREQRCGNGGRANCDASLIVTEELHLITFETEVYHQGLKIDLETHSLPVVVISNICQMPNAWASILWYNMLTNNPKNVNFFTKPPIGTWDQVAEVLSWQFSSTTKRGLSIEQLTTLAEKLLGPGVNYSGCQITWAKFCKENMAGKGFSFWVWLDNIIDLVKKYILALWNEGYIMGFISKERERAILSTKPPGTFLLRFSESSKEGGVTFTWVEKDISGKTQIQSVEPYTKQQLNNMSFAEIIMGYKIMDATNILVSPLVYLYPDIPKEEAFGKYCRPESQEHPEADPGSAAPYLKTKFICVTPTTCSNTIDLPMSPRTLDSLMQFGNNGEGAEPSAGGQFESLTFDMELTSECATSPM

Molecular target: STAT3 (human (endogenous in Bel-7404)) (UniProt P40763)
Experiment: co-IP; total lysates from Bel-7404 cells, immunoprecipitation with STAT3 antibody, western blotting with PRRX1 antibody; lysis buffer 50 mM HEPES pH 7.5, 150 mM NaCl, 1 mM EDTA, 0.5% Nonidet P-40

“paired related homeobox 1 (Prrx1) (from UniProt P54821-1 1-245)” was tested, and the binding was “binds”.
